Values from PubChem BioAssay AID504804 (Drosophila RNAi Screening Center, 2011)
The screen tested about 19,000 reagents; this is a random part of those with a known target gene and a result. Of all reagents, 47 (0.25%) were called active. 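Signals are raw, not normalised; exact z-scores behind calls not deposited; actives needed confirmation, so some wells reaching 2 SD are inactive.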 Entries without a mark were called inactive. The numbers tell different reagents against one gene apart. A plus sign joins genes that one reagent is predicted to hit.

Test: 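dsRNAs that improve Kc cell survival under doxorubicin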 (primary screen)
Cell system: Drosophila Kc cells
Knock-down reagent: long dsRNA against Drosophila genes, 0.5 µg dsRNA per well
Timing: 96 h (48 h knock-down, then 48 h drug)
Conditions: doxorubicin 5 µg/ml for 48 h, added 48 h after dsRNA
Measured: 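Luminescent ATP counts per replicate, not normalised, reflecting viable cells after 48 h dsRNA knock-down followed by 48 h of 5 µg/ml doxorubicin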
Scale: raw ATP luminescence: higher = more viable cells, protection from doxorubicin
Call rule: 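z-score of 2 or more over plate mean in both duplicates, retained only when retests and separate dsRNAs confirm the protection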

| gene knocked down | reagent no. | raw ATP luminescence, replicate 1 | raw ATP luminescence, replicate 2 |
| --- | --- | --- | --- |
| zuc | 1 | 1.12e5 | 69583 |
| CG6420 | 1 | 36710 | 40950 |
| Ercc1 | 1 | 60690 | 56520 |
| Rrp45 | 1 | 2.98e5 | 2.71e5 |
| eIF2Bdelta | 1 | 71697 | 53770 |
| PPP1R15 | 1 | 58617 | 39733 |
| HP6 | 1 | 24787 | 27637 |
| beta-Man | 1 | 24767 | 29140 |
| beta-Man | 2 | 79280 | 63750 |
| Sc2 | 1 | 60703 | 39790 |
| CG1090 | 1 | 19433 | 17753 |
| CG31368 | 1 | 49620 | 46170 |
| CG31368 | 2 | 58017 | 30883 |
| rpk | 1 | 29013 | 25757 |
| Inx5 | 1 | 2.89e5 | 3.60e5 |
| tplus3a + tplus3b | 1 | 59327 | 54853 |
| Polr3A | 1 | 3.70e5 | 3.35e5 |
| CG42824 + CG42823 | 1 | 2.13e5 | 2.62e5 |
| zen2 | 1 | 76210 | 79323 |
| Epg5 | 1 | 48950 | 58330 |
| Cks30A | 1 | 85833 | 61600 |
| nudE | 1 | 1.44e5 | 1.57e5 |
| nudE | 2 | 77930 | 65600 |
| Boot | 1 | 41193 | 64580 |
| CG32551 | 1 | 2.25e5 | 2.67e5 |
| CG13299 | 1 | 70783 | 71163 |
| sigmar | 1 | 82677 | 61943 |
| NKAIN | 1 | 59663 | 78963 |
| eIF3d1 | 1 | 72840 | 61570 |
| CG11878 | 1 | 57260 | 51330 |
| eIF3l | 1 | 68893 | 70177 |
| CG15406 | 1 | 33670 | 24213 |
| CG12491 + CG34105 | 1 | 96130 | 1.12e5 |
| CG12491 + CG34105 | 2 | 50673 | 45267 |
| loaf | 1 | 1.77e5 | 1.92e5 |
| CG8630 | 1 | 44220 | 38340 |
| CG17637 | 1 | 72313 | 70890 |
| CG30015 | 1 | 90693 | 89563 |
| CG30015 | 2 | 69927 | 51377 |
| CG30015 | 3 | 41147 | 75877 |

The list goes on; the last 10 above are carried over.
| gene knocked down | reagent no. | raw ATP luminescence, replicate 1 | raw ATP luminescence, replicate 2 |
| --- | --- | --- | --- |
| eIF3l | 1 | 68893 | 70177 |
| CG15406 | 1 | 33670 | 24213 |
| CG12491 + CG34105 | 1 | 96130 | 1.12e5 |
| CG12491 + CG34105 | 2 | 50673 | 45267 |
| loaf | 1 | 1.77e5 | 1.92e5 |
| CG8630 | 1 | 44220 | 38340 |
| CG17637 | 1 | 72313 | 70890 |
| CG30015 | 1 | 90693 | 89563 |
| CG30015 | 2 | 69927 | 51377 |
| CG30015 | 3 | 41147 | 75877 |
| CG42709 | 1 | 42233 | 36367 |
| Cyp312a1 | 1 | 94127 | 76377 |
| ZnT63C | 1 | 1.41e5 | 91177 |
| ZnT63C | 2 | 1.51e5 | 1.29e5 |
| ZnT63C | 3 | 42620 | 38600 |
| Mal-B2 | 1 | 1.84e5 | 1.92e5 |
| CR13656 | 1 | 2.56e5 | 2.42e5 |
| CR13656 | 2 | 59500 | 56050 |
| CG30098 | 1 | 51577 | 48773 |
| KdelR | 1 | 93133 | 80730 |
| wda | 1 | 91930 | 70570 |
| Had1 | 1 | 2.99e5 | 3.31e5 |
| HipHop | 1 | 19927 | 17833 |
| CG30371 | 1 | 42287 | 71313 |
| Alg10 | 1 | 82283 | 85000 |
| Cyt-c-d | 1 | 47693 | 54227 |
| CG10616 | 1 | 40077 | 43360 |
| nAChRalpha3 | 1 | 36860 | 39810 |
| ATPsynCF6L | 1 | 90683 | 82463 |
| CG7164 | 1 | 53210 | 69453 |
| stops | 1 | 46830 | 43340 |
| stops | 2 | 55620 | 43000 |
| stops | 3 | 47660 | 46750 |
| CG17300 | 1 | 81550 | 1.42e5 |
| AdamTS-A | 1 | 43623 | 23750 |
| AdamTS-A | 2 | 84490 | 67660 |
| AP-1sigma | 1 | 44513 | 50723 |
| Mlp60A | 1 | 48927 | 51397 |
| CG5781 | 1 | 67557 | 76560 |
| Clamp | 1 | 72490 | 63183 |
| CG15252 | 1 | 2.93e5 | 3.10e5 |
| PsGEF | 1 | 38150 | 44020 |
| 14-3-3epsilon | 1 | 66790 | 71910 |
| lncRNA:CR32657 | 1 | 3.14e5 | 2.88e5 |
| Nnp-1 | 1 | 77530 | 24060 |
| CG30385 | 1 | 42687 | 72920 |
| mRpL37 | 1 | 59600 | 60523 |
| CG10996 | 1 | 2.67e5 | 2.76e5 |
| CG14107 | 1 | 64847 | 74800 |
| CG15167 | 1 | 51980 | 58697 |
| scpr-B | 1 | 47750 | 25797 |
| CG32050 (retired record) | 1 | 73593 | 64990 |
| Yip1d1 | 1 | 57927 | 73213 |
| Art9 | 1 | 66710 | 67830 |
| Ipk1 | 1 | 71917 | 59700 |
| Ipk1 | 2 | 67473 | 54040 |
| Ipk1 | 3 | 73567 | 54940 |
| Ugt317A1 | 1 | 58047 | 54657 |
| PIG-S | 1 | 32670 | 24790 |
| PIG-S | 2 | 64110 | 66100 |
| PIG-S | 3 | 39410 | 30720 |
| CG14515 | 1 | 37840 | 38220 |
| fws | 1 | 72840 | 74553 |
| sPLA2 | 1 | 45083 | 67727 |
| Rpn6 | 1 | 55777 | 45133 |
| Or45a | 1 | 50213 | 72187 |
| Sodh2 | 1 | 42657 | 35087 |
| CG7974 | 1 | 62913 | 65500 |
| CG14298 | 1 | 26090 | 16560 |
| GMF | 1 | 1.16e5 | 83823 |
| CG31673 | 1 | 76643 | 72380 |
| mthl14 | 1 | 1.35e5 | 1.58e5 |
| CG14174 | 1 | 86270 | 69177 |
| CG7298 | 1 | 44287 | 20490 |
| CG34135 | 1 | 27963 | 54773 |
| CG44098 | 1 | 72820 | 55410 |
| CG44098 | 2 | 64630 | 68843 |
